The list does not hold the whole screen: it gathers tests that were run many times, whatever their T/C, doses with no T/C, and many T/C values between a quarter and a half above the control. Further doses and runs are listed elsewhere. T/C: endpoint of the treated group in % of that of the vehicle group. Some doses have a count of surviving animals in place of a T/C: the source holds a T/C of zero for them, seemingly a mark for toxic or unscored doses. Some doses without a T/C left all or most animals alive at the check, yet need not have been tolerated: the source hardly ever lists a survival T/C far under the control, and the zero likely stands for such cases as well. Counts of survivors are from the toxicity check (mostly the fifth day) where no day follows; animals may have died later. Schedules are NCI's codes, read here as Q, the interval in days (D) or hours (H), X, the number of doses. Some entries were tested several times; the results are listed from low to high. Some structures stand for samples that the source files as different forms (salt, stereo form or complex); doses refer to the form tested. Some schedule codes hold Z or #, which are not explained here. For survival time, the PubChem record calls one and a half times the control and up active, and a quarter to a half above the control has no call in these data; cut-offs in other NCI protocols can differ. Brackets with × count equal records among those shown. Some T/C values are followed by the survivors on the day toxicity was checked, most often the fifth; without a count, all were alive then.
System: L1210 leukemia ip in BDF1 mice, survival T/C
Assay: NCI In Vivo Anticancer Drug Screen. Data for tumor model L1210 Leukemia (intraperitoneal) in B6D2F1 (BDF1) mice
Settings: T/C endpoint: mean survival time, higher T/C = longer survival
[1] = dose: 200.0 mg/kg/injection, schedule: Q01DX001 (ip), vehicle: saline
[2] = dose: 400.0 mg/kg/injection, schedule: Q01DX001 (ip), vehicle: saline
[3] = dose: 400.0 mg/kg/injection, schedule: Q01DX001 (ip), vehicle: carboxymethylcellulose (CMC)
[4] = dose: 100.0 mg/kg/injection, schedule: Q04DX003 (ip), vehicle: saline with Tween-80
[5] = dose: 200.0 mg/kg/injection, schedule: Q04DX003 (ip), vehicle: saline with Tween-80
[6] = dose: 400.0 mg/kg/injection, schedule: Q04DX003 (ip), vehicle: saline with Tween-80
[7] = dose: 200.0 mg/kg/injection, schedule: Q01DX009 (ip), vehicle: saline
[8] = dose: 400.0 mg/kg/injection, schedule: Q01DX009 (ip), vehicle: saline
[9] = dose: 400.0 mg/kg/injection, schedule: Q04DX003 (ip), vehicle: saline
[10] = dose: 75.0 mg/kg/injection, schedule: Q01DX001 (ip), vehicle: carboxymethylcellulose (CMC)
[11] = dose: 100.0 mg/kg/injection, schedule: Q01DX009 (ip), vehicle: carboxymethylcellulose (CMC)
[12] = dose: 400.0 mg/kg/injection, schedule: Q01DX009 (ip), vehicle: carboxymethylcellulose (CMC)
[13] = dose: 100.0 mg/kg/injection, schedule: Q04DX003 (ip), vehicle: Klucel (hydroxypropylcellulose) (HPC)
[14] = dose: 400.0 mg/kg/injection, schedule: Q04DX003 (ip), vehicle: Klucel (hydroxypropylcellulose) (HPC)
[15] = dose: 100.0 mg/kg/injection, schedule: Q01DX009 (ip), vehicle: saline with Tween-80
[16] = dose: 200.0 mg/kg/injection, schedule: Q01DX009 (ip), vehicle: saline with Tween-80
[17] = dose: 400.0 mg/kg/injection, schedule: Q01DX009 (ip), vehicle: saline with Tween-80

How did the survivor count [1] turn out when `CCCNCCCSCc1ccccc1` was run?
Its survivor count is 0 of 4.

What about the survivor count [2] of the same compound?
Its survivor count is 0 of 4.

How did the survivor count (dose: 15.0 mg/kg/injection, schedule: Q01DX Z (ip), vehicle: carboxymethylcellulose (CMC)) turn out when `NC(=S)N/N=C(\c1ccc(Cl)cc1)C1CC1` was run?
The survivor count was 0 of 6.

What about the survivor count (dose: 30.0 mg/kg/injection, schedule: Q01DX Z (ip), vehicle: carboxymethylcellulose (CMC)) of the same compound?
Its survivor count is 0 of 6.

And the survivor count (dose: 30.0 mg/kg/injection, schedule: Q01DX Z (sc), vehicle: carboxymethylcellulose (CMC))?
The survivor count was 2 of 6.

What about the survivor count (dose: 60.0 mg/kg/injection, schedule: Q01DX Z (ip), vehicle: carboxymethylcellulose (CMC)) of the same compound?
The survivor count was 0 of 6.

What about the survivor count (dose: 60.0 mg/kg/injection, schedule: Q01DX Z (sc), vehicle: carboxymethylcellulose (CMC)) of the same compound?
Its survivor count is 0 of 6.

And the survivor count (dose: 120.0 mg/kg/injection, schedule: Q01DX Z (ip), vehicle: carboxymethylcellulose (CMC))?
The survivor count was 0 of 6.

With `CNc1nc(SCc2ccccc2)c2ncn(C3OC(CO)C(O)C3O)c2n1` (centres undefined) as the compound, how does the survivor count [3] read?
The survivor count was 0 of 4.

For `c1ccc2c(CC[n+]3cccc(C4OCCO4)c3)c[nH]c2c1`, which survivor count [4] is on record?
Its survivor count is 6 of 6.

What about the survivor count [5] of the same compound?
The survivor count was 3 of 6.

What about the survivor count [6] of the same compound?
The survivor count was 0 of 6.

Which survivor count (dose: 100.0 mg/kg/injection, schedule: Q01DX009 (ip), vehicle: saline) does the source give for `Cc1ccc(S(=O)(=O)O)cc1` here?
Its survivor count is 2 of 6.

What about the survivor count [7] of the same compound?
Its survivor count is 0 of 6.

And the survivor count (dose: 200.0 mg/kg/injection, schedule: Q04DX003 (ip), vehicle: saline)?
The survivor count was 0 of 6.

And the survivor count [8]?
Its survivor count is 0 of 6 and 4 of 6.

What about the survivor count [9] of the same compound?
Its survivor count is 0 of 6.

`CC[N+](CC)(Cc1cc([N+](=O)[O-])ccc1OC)Cc1cc([N+](=O)[O-])ccc1OC` was tested. Which survivor count [10] did it give?
Its survivor count is 1 of 6.

And the survivor count (dose: 150.0 mg/kg/injection, schedule: Q01DX001 (ip), vehicle: carboxymethylcellulose (CMC))?
Its survivor count is 0 of 6.

And the survivor count (dose: 300.0 mg/kg/injection, schedule: Q01DX001 (ip), vehicle: carboxymethylcellulose (CMC))?
The survivor count was 0 of 6.

Which T/C [11] does the source give for `COc1cc(NC(=O)Nc2ccc(Cl)c(C(F)(F)F)c2)ccc1NC(C)=O` here?
The T/C was 87, 88, 91 % of control.

What about the survivor count [11] of the same compound?
Its survivor count is 3 of 3.

And the T/C (dose: 200.0 mg/kg/injection, schedule: Q01DX009 (ip), vehicle: carboxymethylcellulose (CMC))?
The T/C was 86, 90, 97, 99 % of control.

What about the survivor count [12] of the same compound?
Its survivor count is 3 of 3 and 6 of 6.

With `CC(C)(C)C1(C)CN(N=O)C(=O)O1` (centres undefined) as the compound, how does the survivor count (dose: 50.0 mg/kg/injection, schedule: Q04DX003 (ip), vehicle: Klucel (hydroxypropylcellulose) (HPC)) read?
The survivor count was 6 of 6.

What about the survivor count [13] of the same compound?
Its survivor count is 0 of 6.

What about the survivor count (dose: 200.0 mg/kg/injection, schedule: Q04DX003 (ip), vehicle: Klucel (hydroxypropylcellulose) (HPC)) of the same compound?
The survivor count was 0 of 6.

What about the survivor count [14] of the same compound?
Its survivor count is 0 of 6.

Which survivor count [8] does the source give for `CCCC1(CCC)CN(CO)C1=O` here?
The survivor count was 5 of 6.

With `Cc1nnnn1C12CC3CC(CC(C3)C1)C2` as the compound, how does the survivor count (dose: 100.0 mg/kg/injection, schedule: Q01DX001 (ip), vehicle: saline) read?
The survivor count was 1 of 6.

What about the survivor count [1] of the same compound?
The survivor count was 1 of 6.

And the survivor count [2]?
The survivor count was 0 of 6.

Which survivor count (dose: 400.0 mg/kg/injection, schedule: Q01DX001 (ip), vehicle: Klucel (hydroxypropylcellulose) (HPC)) does the source give for `Cc1cc(S(=O)(=O)F)ccc1NC(=O)CCc1ccc(N2C(N)=NC(N)=NC2(C)C)cc1` here?
The survivor count was 3 of 6.

`OC[P+](CO)(CO)CO` was tested. Which survivor count (dose: 200.0 mg/kg/injection, schedule: Q04DX002 (ip), vehicle: saline) did it give?
The survivor count was 0 of 3.

What about the survivor count (dose: 400.0 mg/kg/injection, schedule: Q04DX002 (ip), vehicle: saline) of the same compound?
Its survivor count is 0 of 3.

For `N=c1ncn(C2OC(CO[P+](N)(O)O)C(O)C2O)c2nc[nH]c12` (centres undefined), which survivor count (dose: 50.0 mg/kg/injection, schedule: Q01DX005 (ip), vehicle: water) is on record?
The survivor count was 5 of 6.

What about the survivor count (dose: 100.0 mg/kg/injection, schedule: Q01DX005 (ip), vehicle: water) of the same compound?
The survivor count was 0 of 6.

What about the survivor count (dose: 200.0 mg/kg/injection, schedule: Q01DX005 (ip), vehicle: water) of the same compound?
Its survivor count is 0 of 6.

How did the survivor count [7] turn out when `C=C(C)CN` was run?
Its survivor count is 3 of 6.

And the survivor count [9]?
Its survivor count is 0 of 6.

For `CC(C)N=NCCO`, which survivor count (dose: 400.0 mg/kg/injection, schedule: Q01DX009 (ip), vehicle: Klucel (hydroxypropylcellulose) (HPC)) is on record?
Its survivor count is 3 of 3.

With `CSc1ccc(NC(=O)Nc2ccc(C(=O)NCC(=O)O)cc2)cc1` as the compound, how does the T/C (dose: 50.0 mg/kg/injection, schedule: Q01DX009 (ip), vehicle: saline with Tween-80) read?
The T/C was 97, 98, 105 % of control (2×).

What about the survivor count [15] of the same compound?
Its survivor count is 0 of 3, 1 of 3, 3 of 6, 6 of 6.

And the survivor count (dose: 200.0 mg/kg/injection, schedule: Q01DX001 (ip), vehicle: saline with Tween-80)?
The survivor count was 1 of 6.

And the survivor count [16]?
Its survivor count is 0 of 3 and 0 of 6.

What about the survivor count (dose: 400.0 mg/kg/injection, schedule: Q01DX001 (ip), vehicle: saline with Tween-80) of the same compound?
Its survivor count is 1 of 6.

And the survivor count (dose: 400.0 mg/kg/injection, schedule: Q04DX002 (ip), vehicle: saline with Tween-80)?
The survivor count was 0 of 3 and 1 of 6.

For `CCOC(=O)C(Br)c1cccc(OC)c1` (centres undefined), which T/C (dose: 200.0 mg/kg/injection, schedule: Q04DX003 (ip), vehicle: saline sonified) is on record?
Its T/C is 127 % of control.

How did the survivor count (dose: 100.0 mg/kg/injection, schedule: Q01DX009 (ip), vehicle: Klucel (hydroxypropylcellulose) (HPC)) turn out when `CSc1ccc(NC(=O)Nc2cc(Cl)c(Cl)cc2C)cc1` was run?
Its survivor count is 6 of 6.

How did the survivor count [14] turn out when `O=C(Cl)/C=C/c1c(Cl)cccc1Cl` was run?
Its survivor count is 0 of 6.

`N=C(N)SCCN1C(=O)c2ccccc2C1=O` was tested. Which survivor count [5] did it give?
The survivor count was 1 of 6.

And the survivor count [6]?
The survivor count was 0 of 6.

How did the T/C (dose: 100.0 mg/kg/injection, schedule: Q01DX009 (ip), vehicle: saline with Tween-80, evaluated on day 20) turn out when `CCOC(=O)c1ccc(NC(=O)Nc2ccc(OC)cc2OC)cc1` was run?
The T/C was 86, 87, 89 % of control.

What about the T/C (dose: 100.0 mg/kg/injection, schedule: Q01DX009 (ip), vehicle: saline with Tween-80, evaluated on day 30) of the same compound?
Its T/C is 87 and 95 % of control.

What about the survivor count [15] of the same compound?
Its survivor count is 6 of 6.

And the survivor count [4]?
Its survivor count is 6 of 6.

What about the survivor count [16] of the same compound?
Its survivor count is 3 of 3 and 6 of 6.

And the survivor count [5]?
Its survivor count is 6 of 6.

And the T/C [17]?
Its T/C is 90 [5 of 6 alive] and 100 % of control [4 of 6 alive].

What about the survivor count [17] of the same compound?
The survivor count was 3 of 3.

And the survivor count [6]?
The survivor count was 6 of 6.

What does the source list for `CCOc1cc(/C=N\Nc2nncn2N)c(C)cc1N(CCCl)CCCl`?
T/C (dose: 2.2 mg/kg/injection, schedule: Q01DX015 (ip), vehicle: carboxymethylcellulose (CMC)): 134 % of control; T/C (dose: 3.4 mg/kg/injection, schedule: Q01DX015 (ip), vehicle: carboxymethylcellulose (CMC)): 125 % of control; T/C (dose: 5.2 mg/kg/injection, schedule: Q01DX015 (ip), vehicle: carboxymethylcellulose (CMC)): 112, 126, 130, 140 % of control; T/C (dose: 9.0 mg/kg/injection, schedule: Q01DX015 (ip), vehicle: carboxymethylcellulose (CMC)): 129 and 135 % of control; survivor count (dose: 25.0 mg/kg/injection, schedule: Q01DX015 (ip), vehicle: carboxymethylcellulose (CMC)): 6 of 6; T/C (dose: 33.0 mg/kg/injection, schedule: Q01DX001 (ip), vehicle: carboxymethylcellulose (CMC)): 129 % of control; T/C (dose: 50.0 mg/kg/injection, schedule: Q01DX001 (ip), vehicle: carboxymethylcellulose (CMC)): 132 % of control; T/C [10]: 126 % of control; survivor count [3]: 1 of 4

`CN(C)N=Nc1ccc(C(=N)N)cc1` was tested. Which survivor count (dose: 200.0 mg/kg/injection, schedule: Q01DX001 (ip), vehicle: acid diluted with saline) did it give?
Its survivor count is 0 of 6.

And the survivor count (dose: 400.0 mg/kg/injection, schedule: Q01DX001 (ip), vehicle: acid diluted with saline)?
The survivor count was 0 of 6.

How did the survivor count [12] turn out when `CCCCCCCCCCC(=O)N(CCC)CCC` was run?
The survivor count was 3 of 3.

With `Cc1cccc(NC(=O)Nc2cccc3ccccc23)c1C` as the compound, how does the survivor count [13] read?
The survivor count was 6 of 6.

Source: PubChem BioAssay AID248 (DTP/NCI, 2004)
